In US20100130512A1, “FUSED-RING H[…]” (RENSSELAER POLYTECHNIC INSTITUTE, priority 2007, published 2010):
At least one compound was matched to its structure with a doubt left.

Sequences of proteins named here, by UniProt entry; tags and fusion partners are left off. A change or cut given only in a name is not applied to a line headed by its entry.
UniProt P41145: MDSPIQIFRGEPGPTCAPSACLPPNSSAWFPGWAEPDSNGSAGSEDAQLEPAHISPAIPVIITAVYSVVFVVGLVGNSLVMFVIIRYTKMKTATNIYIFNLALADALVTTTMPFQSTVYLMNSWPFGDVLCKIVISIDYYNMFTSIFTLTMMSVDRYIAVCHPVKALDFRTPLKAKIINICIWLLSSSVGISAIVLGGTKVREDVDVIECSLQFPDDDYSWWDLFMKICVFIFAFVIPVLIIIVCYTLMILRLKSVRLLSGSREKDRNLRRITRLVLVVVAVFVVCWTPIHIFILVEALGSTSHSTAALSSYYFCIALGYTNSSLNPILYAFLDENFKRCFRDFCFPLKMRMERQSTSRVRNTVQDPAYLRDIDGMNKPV
UniProt P35372, whole entry: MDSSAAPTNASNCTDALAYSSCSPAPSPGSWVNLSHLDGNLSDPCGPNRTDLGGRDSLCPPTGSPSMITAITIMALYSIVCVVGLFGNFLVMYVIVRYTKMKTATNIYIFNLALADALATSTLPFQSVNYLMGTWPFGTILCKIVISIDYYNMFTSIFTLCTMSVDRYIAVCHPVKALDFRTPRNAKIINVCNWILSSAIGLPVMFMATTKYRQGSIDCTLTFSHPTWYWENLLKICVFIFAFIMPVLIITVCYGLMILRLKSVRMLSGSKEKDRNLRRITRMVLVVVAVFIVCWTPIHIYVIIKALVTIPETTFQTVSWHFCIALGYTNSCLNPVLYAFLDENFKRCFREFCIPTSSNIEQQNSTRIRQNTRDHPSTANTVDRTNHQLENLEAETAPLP

Key:
human κ opioid receptor = biological target: T1, human κ opioid receptor (Homo sapiens, UniProt P41145); assay: [35S]GTPγS binding assay, κ; type: biochemical; settings: agonist/antagonist character; antagonism vs 100 nM U50,488
T1 construct: expressed in transfected cells

human μ opioid receptor = biological target: T2, human μ opioid receptor (Homo sapiens, UniProt P35372); assay: [35S]GTPγS binding assay, μ; type: biochemical; settings: agonist/antagonist character; antagonism vs 200 nM DAMGO
T2 construct: expressed in transfected cells

**Q.** `CC1C2Cc3ccc(C(N)=O)c(N)c3C1(C)CCN2CC1CC1` (mixture of isomers) [Example 6, Cis-(±)-3-(cyclopropylmethyl)-1,2,3,4,5,6-hexahydro-6,11-dimethyl-7-amino-2,6-methano-3-benzazocine-8-carboxamide] was tested. Which “GTPγS data, KOR” value (human κ opioid receptor) did it give?
**A.** moderate

**Q.** And the “GTPγS data, MOR” value (human μ opioid receptor)?
**A.** antagonist
